Measurements reported in PubChem BioAssay AID1053208 (Peter MacCallum Cancer Centre, 2014).
Shown is one part, drawn at random, of about 17,000 reagents tested. In the full data, 788 (4.7%) got an active call. 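Calls rest on z-score classes alone; an extra cut-off of viability at most 70% of control was not applied to them.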 A number with no mark means an inactive call. The numbers tell different reagents against one gene apart. Further read-outs or replicates are left out here.

- Purpose: 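Synthetic lethal interactions between gene loss and doxorubicin in osteosarcoma cells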 (primary screen)
- Cells: mouse osteosarcoma cells, early-passage culture from an engineered mouse model of fibroblastic bone tumour
- Reagent: siRNA pool against mouse genes, 40 nM
- Timing: about 120 h (48 h before drug, then 72 h with drug)
- Treatment: doxorubicin 100 nM for 72 h, roughly 30-40% inhibitory dose
- Detection: 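Luminescent ATP signal taken as viability with or without 100 nM doxorubicin for 72 h; mean of two wells set against non-targeting siRNA and turned into robust z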
- Scale: viability z-score with doxorubicin: higher = more viable cells under doxorubicin; viability z-score without drug: higher = more viable cells with knock-down alone
- Active means: 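Called active if knock-down leaves viability unchanged without drug (z within -2 to 2) but lowers it with doxorubicin (z at or under -2)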

The first 2 records as a preview:
target gene | pool no. | combined z-score class | viability z-score with doxorubicin | viability z-score without drug
Zic1 (zinc finger protein of the cerebellum 1) | 1 | no change with or without drug | -0.22 | 1.18
Rnh1 (ribonuclease/angiogenin inhibitor 1) | 1 | high cell count without drug only | 1.57 | 2.19

The listing, repeating the preview:
target gene | pool no. | combined z-score class | viability z-score with doxorubicin | viability z-score without drug
Zic1 (zinc finger protein of the cerebellum 1) | 1 | no change with or without drug | -0.22 | 1.18
Rnh1 (ribonuclease/angiogenin inhibitor 1) | 1 | high cell count without drug only | 1.57 | 2.19
Acaa1b (acetyl-Coenzyme A acyltransferase 1B) | 1 | no change with or without drug | -0.45 | 0.17
Terf2ip (telomeric repeat binding factor 2, interacting protein) | 1 | no change with or without drug | -0.22 | 1.52
Afp (alpha fetoprotein) | 1 | no change with or without drug | 0.9 | -0.34
Slc15a4 | 1 | no change with or without drug | -1.91 | -0.84
1700102P08Rik (RIKEN cDNA 1700102P08 gene) | 1 | no change with or without drug | 0.45 | 1.52
Vmn1r226 (vomeronasal 1 receptor 226) | 1 | no change with or without drug | 1.12 | -0.34
Smpdl3a (sphingomyelin phosphodiesterase, acid-like 3A) | 1 | no change with or without drug | 0.45 | -0.17
Ubp1 (upstream binding protein 1) | 1 | no change with or without drug | 0 | -0.84
Isl2 (insulin related protein 2 (islet 2)) | 1 | no change with or without drug | 1.12 | 1.18
Ankmy2 (ankyrin repeat and MYND domain containing 2) | 1 | no change with or without drug | -0.34 | 0.17
Or14a260 (olfactory receptor family 14 subfamily A member 260) | 1 | no change with or without drug | -0.9 | -0.84
Pheta1 (PH domain containing endocytic trafficking adaptor 1) | 1 | no change with or without drug | -0.45 | 0.17
Ptprz1 (protein tyrosine phosphatase receptor type Z, polypeptide 1) | 1 | no change with or without drug | -1.35 | -0.51
Dlg5 (discs large MAGUK scaffold protein 5) | 1 | no change with or without drug | 0.9 | 0.51
Dtwd1 (DTW domain containing 1) | 1 | no change with or without drug | -0.56 | 0
Mrps31 (mitochondrial ribosomal protein S31) | 1 | no change with or without drug | 0.45 | -0.84
Cygb (cytoglobin) | 1 | no change with or without drug | 0 | -1.52
Pwwp3b (PWWP domain containing 3B) | 1 | no change with or without drug | 0.45 | 1.52
Or6c3 (olfactory receptor family 6 subfamily C member 3) | 1 | no change with or without drug | -1.35 | -1.18
Vmn1r195 (vomeronasal 1 receptor 195) | 1 | no change with or without drug | -0.79 | -0.84
Mogs (mannosyl-oligosaccharide glucosidase) | 1 | no change with or without drug | -1.69 | -0.51
Krt72 (keratin 72) | 1 | no change with or without drug | 0.45 | 0.17
Abcb1a (ATP-binding cassette, sub-family B member 1A) | 1 | no change with or without drug | -1.01 | 0.51
Fgg (fibrinogen gamma chain) | 1 | no change with or without drug | -0.67 | -0.51
Galnt4 (polypeptide N-acetylgalactosaminyltransferase 4) | 1 | no change with or without drug | -0.9 | 0.17
Grhl2 (grainyhead like transcription factor 2) | 1 | low cell count with doxorubicin only (active) | -2.36 | -0.34
Dhx8 (DEAH-box helicase 8) | 1 | no change with or without drug | 0.34 | -0.17
Pfdn5 (prefoldin 5) | 1 | no change with or without drug | 1.46 | 1.18
Pfdn5 (prefoldin 5) | 2 | high cell count with doxorubicin only | 2.25 | 1.52
Ces1c (carboxylesterase 1C) | 1 | no change with or without drug | 0.67 | 1.01
Mrps34 (mitochondrial ribosomal protein S34) | 1 | no change with or without drug | -1.57 | -0.51
Rabif (RAB interacting factor) | 1 | no change with or without drug | -0.34 | 0.17
